Experimental findings from PMC10140581, “Development and evaluation of novel artemisinin-isatin hybrids with potential anti-leukemic cytotoxicity” (Frontiers in Oncology, 2023) are described below.

The subject of assay [1] is K562 human myeloid leukemia cell line. Briefly: MTT antiproliferative assay, K562. The assay is classed as cell-based. The method, then: (§1) The antiproliferative activity and cytotoxicity of ester tethered ART-isatin hybrids 7a-u against human myeloid leukemia cell lines (K562 CM-0130 purchased from Procell and K562/ADR AW-CELLS-H0187 purchased from AnWei-sci), human acute lymphoblastic leukemia cell line (CCRF-CEM CL-0058 purchased from Procell) as well as cytotoxicity towards normal human peripheral blood mononuclear cells (PBMCs 230470, purchased from Mingzhoubio) were assessed by 3-(4,5-dimethylthiazol-2-yl)-2,5-diphenyltetrazolium bromide (MTT) assay. The antiproliferative activity was expressed by half maximal inhibitory concentration (IC50) values, which were presented in Table 2 .
(§2) K562 CM-0130 (purchased from Procell), K562/ADR AW-CELLS-H0187 (purchased from AnWei-sci) and CCRF-CEM CL-0058 (purchased from Procell) leukemia cell lines (2×10^3) were plated in each well of a 96-well plate and were allowed to adhere and spread for 24 h at 37°C in 5% CO2 for attachment. Medium in wells was replaced after 24 h with fresh medium containing the tested compounds in DMSO (1% v/v) and incubated for 72 h. The ART-isatin hybrids 7a-u along with the positive control Adriamycin and Vorinostat were added to a final concentration of 100 µM, and the cells were cultured for 24 h at 37°C. […]

For assay [2], the system named is CCRF-CEM human acute lymphoblastic leukemia cell line. Briefly: MTT antiproliferative assay, CCRF-CEM. Type of assay: cell-based. On the procedure:
as §1, §2
On the technique in general: Tetrazolium assays rely on reduction of a dye to a coloured formazan, in cell work by metabolically active cells.

Take `O=C(CCCCCCC(=O)Nc1ccccc1)NO` [Vorinostat, reference compound]: the 50% inhibitory concentration (IC50) in assay [1] is 3.83 µM; in assay [2] it was 0.46 µM.

The IC50 is the concentration needed to halve the response being measured. Read a high IC50 as a need for much substance.
